Measurements as given in patent US20170369592A1, “NOVEL ANTI-FIBROBLAST ACTIVATION PROTEIN (FAP) ANTIBODIES AND USES DERIVED THEREOF” (Mabimmune Diagnostics AG, priority 2015, published 2017).
These are yes or no findings as the source states them, for the method shown. Some results given as binding are weak or reduced against the parent protein; the word gives no strength.

The chains behind the UniProt entries cited, without tags or fusion partners. Where a name states a change or a piece, a line headed by the entry shows the natural chain unless it says otherwise. Residues count along the entry.
UniProt Q12884: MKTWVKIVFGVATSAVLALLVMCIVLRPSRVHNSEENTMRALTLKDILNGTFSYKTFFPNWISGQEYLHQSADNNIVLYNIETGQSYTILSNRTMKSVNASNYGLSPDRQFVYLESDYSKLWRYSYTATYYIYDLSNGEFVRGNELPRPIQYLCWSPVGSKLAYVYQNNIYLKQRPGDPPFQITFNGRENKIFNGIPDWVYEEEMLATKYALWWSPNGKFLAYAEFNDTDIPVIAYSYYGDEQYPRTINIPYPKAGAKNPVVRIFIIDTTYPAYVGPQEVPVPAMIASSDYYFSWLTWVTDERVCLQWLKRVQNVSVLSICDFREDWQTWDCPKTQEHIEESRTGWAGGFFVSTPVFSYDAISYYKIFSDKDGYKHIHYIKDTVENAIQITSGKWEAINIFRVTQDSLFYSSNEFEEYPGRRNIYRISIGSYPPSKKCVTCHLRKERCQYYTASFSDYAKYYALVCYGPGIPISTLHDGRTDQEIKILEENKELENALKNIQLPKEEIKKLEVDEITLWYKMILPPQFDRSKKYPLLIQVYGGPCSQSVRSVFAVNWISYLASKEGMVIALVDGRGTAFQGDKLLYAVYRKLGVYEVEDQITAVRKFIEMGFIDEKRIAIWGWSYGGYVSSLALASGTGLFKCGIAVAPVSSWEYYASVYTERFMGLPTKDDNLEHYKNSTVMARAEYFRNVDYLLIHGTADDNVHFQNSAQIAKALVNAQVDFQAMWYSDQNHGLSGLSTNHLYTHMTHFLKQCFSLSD
recombinant human Fibroblast Activation Protein (FAP): residues 26-760 of Q12884

Columns and labels:
[1] = target: T1, FAP peptide 132 (525-…-539) (human); assay: pepscan image (FIG. 4A), antibody at 1 µg/ml
T1 sequence (peptide): PPQFDRSKKYPLLIQ

[2] = target: T2, FAP peptide 131 (521-…-535) (human); assay: pepscan image (FIG. 4A), antibody at 1 µg/ml
T2 sequence (peptide): KMILPPQFDRSKKYP

[3] = target: recombinant human Fibroblast Activation Protein (FAP) (human) (UniProt Q12884); assay: ELISA, tagged rhFAP captured on the plate with an anti-tag antibody, HRP-labelled NI-206.82C2, TMB, OD 450 nm [continued) B]
[4] = target: transmembrane human FAP on FAP-HEK293 cells (human) (UniProt Q12884); assay: flow cytometry, Cy5-labelled antibody on FAP-HEK293 cells, delta MFI = MFI NI-206.82C2 minus MFI 43A11, PBS at pH 6.8
[5] = target: recombinant human Fibroblast Activation Protein (FAP) (human) (UniProt Q12884); assay: ELISA, capture and direct formats
[6] = target: recombinant human Fibroblast Activation Protein (FAP) (human) (UniProt Q12884); assay: direct ELISA (FIG. 2B)
[7] = target: recombinant human Fibroblast Activation Protein (FAP) (human) (UniProt Q12884); assay: capture ELISA (FIG. 2A)
[8] = target: recombinant human Fibroblast Activation Protein (FAP) (human) (UniProt Q12884); assay: ELISA, NI-206.82C2 at 20, 4 and 0.8 nM on captured His-tagged FAP (FIG. 7A)
[9] = target: recombinant human Fibroblast Activation Protein (FAP) (human) (UniProt Q12884); assay: capture ELISA, His-tagged rhFAP captured with coated anti-His antibody, detection with HRP goat anti-human antibody
[10] = target: T1, FAP peptide 132 (525-…-539) (human); assay: pepscan, 15-mer peptides on a nitrocellulose membrane, antibody at 1 µg/ml
[11] = target: T2, FAP peptide 131 (521-…-535) (human); assay: as above
[12] = target: T3, truncation peptide spot 24 (full length peptide of spot 21 shortened by 3 amino acids from the C-terminus); assay: truncation peptides spotted on a nitrocellulose membrane
T3 sequence (peptide, by the resolver, Synthetic peptide spotted on a nitrocellulose membrane.): KMILPPQFDRSKKYPL

[13] = target: T4, truncation peptide spot 23 (full length peptide of spot 21 shortened by 2 amino acids from the C-terminus); assay: as above
T4 sequence (peptide, by the resolver, Synthetic peptide spotted on a nitrocellulose membrane.): KMILPPQFDRSKKYPLL

[14] = target: T5, FAP peptide fragment 521-…-539 (human); assay: as above
T5 sequence (peptide): KMILPPQFDRSKKYPLLIQ

[15] = target: recombinant human Fibroblast Activation Protein (FAP) (human) (UniProt Q12884); assay: ELISA, enzyme captured via its tag, HRP-labelled NI-206.82C2 (FIG. 7B)
[16] = target: recombinant human Fibroblast Activation Protein (FAP) (human) (UniProt Q12884); assay: sandwich ELISA, F19 as capture antibody, HRP-labelled 82C2 as detection antibody (FIG. 17C)
[17] = target: transmembrane human FAP on FAP-HEK293 cells (human) (UniProt Q12884); assay: flow cytometry, Cy5-labelled antibody on FAP-HEK293 cells, delta MFI = MFI NI-206.82C2 minus MFI 43A11, PBS at pH 6.4
[18] = target: recombinant human Fibroblast Activation Protein (FAP) (human) (UniProt Q12884); assay: sandwich ELISA, F19 coated as capture antibody, rhFAP standard titrated, HRP-labelled 82C2 as detection antibody
[19] = target: transmembrane human FAP on FAP-HEK293 cells (human) (UniProt Q12884); assay: flow cytometry, Cy5-labelled antibody on FAP-HEK293 cells, delta MFI = MFI NI-206.82C2 minus MFI 43A11, PBS at pH 7.4
[20] = target: transmembrane human FAP on FAP-HEK293 cells (human) (UniProt Q12884); assay: flow cytometry, Cy5 labelled antibody on FAP-HEK293 cells, ΔMFI = MFI 82C2 minus MFI 43A11
[21] = target: transmembrane human FAP on FAP-HEK293 cells (human) (UniProt Q12884); assay: flow cytometry, Cy5 labelled antibody on FAP-HEK293 cells at pH 7.4, 6.8 and 6.4
[22] = target: recombinant human Fibroblast Activation Protein (FAP) (human) (UniProt Q12884); assay: sandwich ELISA, F19 coated as capture antibody, rhFAP titrated, HRP-labelled 82C2 as detection antibody

Measured: binding

B1: NI-206.82C2 (antibody, V domains shown)
VH: QVQLQQSGPGLVKPSQTLSLTCAISGDSVSSNSVTWNWIRQSPSRGLEWLGRTYYRSKWYNDYAVSVKGRITINPDTSKNQFYLQLKSVTPEDAAVYYCARDSSILYGDYWGQGTLVTVSS
VL: QAVLTQPSSLSASPGASASLTCTLPSGINVGTYRIFWFQQKPGSPPQYLLSYKSDSDNHQGSGVPSRFSGSKDASANAGILLISGLQSEDEADYYCMIWHSSAWVFGGGTKLTVL
notes: Labelled with HRP or Cy5 in some assays; also called HRP-labelled 82C2
binds: all assays above
